Patent publication US20030109702A1, “Pyrazolyl benzyl ethers” (priority 1999, published 2003)
Some of these results come from one statement about several compounds together.

Columns and labels:
Pyricularia oryzae = assay type: in vivo; settings: rice, protective, application rate 125 g/ha, evaluation 7 days after inoculation
Phytophthora infestans = assay type: in vivo; settings: tomato, protective, application rate 100 g/ha, evaluation 3 days after inoculation

Work on `CON=C(C1=NOCCO1)c1ccccc1COc1ccn(-c2ccc(Cl)cc2)n1` [Example 1, [2-({[1-(4-chlorophenyl)-1H-pyrazol-3-yl]oxy}methyl)phenyl](5,6-dihydro-1,4,2-dioxazin-3-yl)methanone O-methyl oxime] yielded an efficacy (Pyricularia oryzae) of at least 78% and an efficacy (Phytophthora infestans) of at least 89%.

Work on `CON=C(C1=NOCCO1)c1ccccc1COc1ccn(-c2ccc(F)cc2)n1` [Example 4] yielded an efficacy (Pyricularia oryzae) of at least 78% and an efficacy (Phytophthora infestans) of at least 89%.

`CON=C(C1=NOCCO1)c1ccccc1COc1ccn(-c2ccc(C)cc2)n1` [Example 5] showed an efficacy (Pyricularia oryzae) of at least 78% and an efficacy (Phytophthora infestans) of at least 89%.

With `CON=C(C1=NOCCO1)c1ccccc1COc1ccn(-c2cc(Cl)cc(Cl)c2)n1` [Example 7] the efficacy (Pyricularia oryzae) was at least 78%.

With `CON=C(C1=NOCCO1)c1ccccc1COc1ccn(-c2ccc(C#N)cc2)n1` [Example 12] the efficacy (Pyricularia oryzae) was at least 78%.

Compound `CON=C(C1=NOCCO1)c1ccccc1COc1ccn(-c2ccc(C(C)C)cc2)n1` [Example 16] has an efficacy (Pyricularia oryzae) of at least 78% and an efficacy (Phytophthora infestans) of at least 89%.
